Data taken from ChEMBL document CHEMBL3988442, “University of Dundee, Small-Polar-MMV Screening Library” (2021).

The chains behind the UniProt entries cited, without tags or fusion partners.
UniProt P9WFT3, whole entry: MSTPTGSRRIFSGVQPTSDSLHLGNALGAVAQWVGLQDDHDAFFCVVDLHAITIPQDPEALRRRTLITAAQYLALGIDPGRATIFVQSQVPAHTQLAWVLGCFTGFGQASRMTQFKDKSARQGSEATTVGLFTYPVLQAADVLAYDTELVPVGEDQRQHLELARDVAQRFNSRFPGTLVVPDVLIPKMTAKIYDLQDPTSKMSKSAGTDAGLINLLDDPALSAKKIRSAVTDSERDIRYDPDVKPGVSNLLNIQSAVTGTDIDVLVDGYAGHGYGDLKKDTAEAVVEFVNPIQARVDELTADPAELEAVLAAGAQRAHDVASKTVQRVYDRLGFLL
UniProt P9WNZ1, whole entry: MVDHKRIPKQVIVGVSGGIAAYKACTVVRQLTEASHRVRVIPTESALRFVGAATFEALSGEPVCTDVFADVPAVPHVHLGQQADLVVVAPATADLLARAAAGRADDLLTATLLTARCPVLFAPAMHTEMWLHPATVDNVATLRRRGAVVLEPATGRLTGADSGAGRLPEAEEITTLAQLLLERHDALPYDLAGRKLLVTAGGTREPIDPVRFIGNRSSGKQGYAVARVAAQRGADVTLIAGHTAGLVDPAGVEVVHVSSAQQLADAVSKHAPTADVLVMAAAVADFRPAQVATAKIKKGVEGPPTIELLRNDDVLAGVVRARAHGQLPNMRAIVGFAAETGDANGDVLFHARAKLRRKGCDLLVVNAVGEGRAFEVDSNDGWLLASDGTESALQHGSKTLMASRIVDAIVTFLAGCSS
UniProt P9WPC5, whole entry: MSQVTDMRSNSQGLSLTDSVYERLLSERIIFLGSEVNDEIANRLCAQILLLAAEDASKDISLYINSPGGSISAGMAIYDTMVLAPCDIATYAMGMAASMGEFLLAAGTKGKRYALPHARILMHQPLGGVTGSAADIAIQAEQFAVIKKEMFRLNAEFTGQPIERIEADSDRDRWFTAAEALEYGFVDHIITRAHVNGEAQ
UniProt P9WPC3, whole entry partner: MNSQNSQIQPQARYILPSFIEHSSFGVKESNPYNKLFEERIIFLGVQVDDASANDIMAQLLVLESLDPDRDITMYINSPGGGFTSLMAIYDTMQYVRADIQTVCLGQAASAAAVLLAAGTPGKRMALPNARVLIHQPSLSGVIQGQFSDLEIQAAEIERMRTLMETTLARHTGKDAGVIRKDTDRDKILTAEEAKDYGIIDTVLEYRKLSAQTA

A: 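Tryptophan-tRNA ligase, Mycobacterium tuberculosis (UniProt P9WFT3). Enzyme assay of tryptophanyl-tRNA synthetase; the read-out is not stated. Concentration: 10 µM. Higher most likely means stronger inhibition; the record gives no direction and few retests gave an IC50. Size under these conditions: about 65,000 compounds, about 64 of them at 50% or above in at least one test.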
B: 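Enzyme assay of CoaBC with a phosphate dye (Biomol Green) read at 650 nm. Target: Coenzyme A biosynthesis protein CoaBC, Mycobacterium tuberculosis (UniProt P9WNZ1). Tested at 30 µM. Higher reads as stronger inhibition, judged from the few compounds that gave an IC50. Most strong results did not repeat in a second test. Size under these conditions: about 67,000 compounds, about 40 of them at 50% or above in at least one test.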
C: 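Protease assay of ClpP1P2, read by the AMC dye that it sets free. Target: ClpP1P2, Mycobacterium tuberculosis (UniProt P9WPC5 and UniProt P9WPC3). Concentration: 50 µM. Direction is inferred from only a few compounds that gave an IC50; most scored high, so higher reads as stronger inhibition. Most other retested compounds had strongly negative values. Of about 69,000 compounds tested this way, about 10 (0.015%) reached 50% or more in at least one test.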

Each number is a percent effect as filed.
How 0% and 100% were set is not recorded. Most values in the screen are low, and negative values occur.
The compounds are a random part of those screened.
A dash means the value is not listed here; it may have been measured.

Compound	A	B	C
COc1ccncc1NCc1cscn1	-1.613	-4.069	10.38
O=C(NCCSc1ccccc1)[C@H]1CNC[C@H](C(=O)N2CCOCC2)C1	2.093	-21.86	-10.62
CNc1cncc(C2CCCN2c2cc(C)ncn2)n1 (stereo not shown)	-	0.1239	-0.9837
Cc1cccc(CN2CCC(c3csc4nccn34)CC2)n1	-3.776	-4.306	4.754
O=C(NCCCN1CCOCC1)c1ccnc(OCc2ccccc2)c1	-1.715	8.403	8.63
CNS(=O)(=O)c1ccc(CNC(=O)NCC2CCC2)cc1	-1.221	8.855	-4.453
O=C(Nc1ccc(F)cc1)N1C[C@H]2CC[C@@H]1CN(Cc1cccnc1)C2	-2.78	3.198	0.3983
CN(Cc1cn2c(n1)CN(C(=O)C1CCCO1)CC2)Cc1ccco1 (stereo not shown)	1.833	12.42	4.379
COCCN1CCC2(CCCN(c3ncc(F)cn3)C2)C1 (stereo not shown)	-3.66	-0.2049	0.7411
Cc1ccc(C(O)CN(C)Cc2cnn(C)c2)cc1C (stereo not shown)	-5.49	-6.796	-8.494
CN(C)CCN1CCCC12CCN(C(=O)c1ccoc1)CC2	-4.809	3.765	8.06
O=C(NCc1ccccn1)C1CN(c2nc3ccccc3s2)CCN1 (stereo not shown)	-5.509	-0.8065	-2.702
Cn1ccnc1-c1noc(NCc2ccccc2)n1	1.332	0.7444	0.3881
CC(=O)N1CCC(c2c(CN(C)C)cnc3cc(C)nn23)CC1	4.167	0	24.19
CCC(C)NC(=O)c1ccc(CNC(=O)COC)cc1 (stereo not shown)	-5.623	9.761	8.693
Cn1ccnc1COc1ccc(CSc2nnnn2C2CC2)cc1	-2.584	7.824	-1.668
CCN(CCc1nc2cc(C)ccc2[nH]1)C(=O)COC	-3.271	13.64	12.36
COCCC1COC2(CCN(C(C)=O)CC2)C1 (stereo not shown)	-1.262	16.09	8.594
COCCCN1CCCC1c1noc(C2CC2)n1 (stereo not shown)	5.387	-0.5249	-2.011
CC(c1ncc(C(C)(C)C)o1)N1CCN(Cc2ccc(Cl)s2)CC1 (stereo not shown)	1.598	3.606	-13.94
CCCSCC(=O)Nc1ncn(CC(=O)NCc2ccccc2)n1	0.1776	8.929	-13.26
c1nc(N2CCc3[nH]cnc3C2)c2cc[nH]c2n1	-0.576	4.126	10.17
COc1ccc(C(=O)N2CC[C@@H]3[C@H](CC2)N(C)CCS3(=O)=O)cc1	-4.673	-7.944	3.814
CCn1cc(NC(=O)c2cccc(OCC(F)(F)F)n2)cn1	-4.856	1.222	-0.7479
Cc1nccc(-c2cccc(-c3ccn(CC4CCNC4)n3)c2)n1 (stereo not shown)	-3.382	-46.97	-12.45
CNC(=O)[C@@H]1C[C@H]2CN(C(=O)c3ccccn3)C[C@H]2N1C(C)C	9.373	7.822	9.15
c1nc(CN2CCC3(CC2)COCCN3CC2CC2)c[nH]1	-2.075	3.759	-8.266
Cc1nc(CN2C[C@@H]3CN(C(=O)NC(C)C)C[C@@H]3C2=O)cs1	-4.362	5.838	-9.992
O=C(c1ccco1)N1CCCC2(CN(Cc3cccs3)CCO2)C1 (stereo not shown)	0.8364	0.9677	-0.8525
Cc1nc2ccnn2c(C)c1CCC(=O)N1CCN(C2CC2)CC1	-3.996	2.17	1.465
Cc1cc(CN2CCN(C(=O)CCc3cccs3)CC2)on1	-3.62	3.444	-0.5722
Cc1ncc(CN2CCOCC2)c2cc(C(=O)c3ccc(Br)cc3)oc12	6.768	6.053	-13.73
Cc1ccc(C(=O)N2CCN(C(=O)C(C)n3ccnc3)CC2)cc1F (stereo not shown)	-5.326	-4.958	-2.139
COc1ccc(NC(C)C(=O)N2CCCC2)cn1 (stereo not shown)	6.79	-3.846	-7.863
CC(NC(=O)c1cn(CCC2CCCCC2)nn1)c1cnn(C)c1 (stereo not shown)	-2.617	3.302	7.225
O=C1CCc2cc(S(=O)(=O)NCc3cc4n(n3)CCCNC4)ccc2N1	0.5228	0.9828	-5.887
O=C(C1CC=CC1)N1CCC2(CCN(Cc3cccc(F)c3)CC2)C1	-1.58	1.935	-15.98
c1ccc(Cc2noc(-c3ccc(NCC4CCCCO4)nc3)n2)cc1 (stereo not shown)	0.6056	11.97	-7.477
Cc1nc(C)c(CN2CCOC[C@H](Oc3ccccc3)C2)s1	-0.4647	4.194	-5.198
Cc1ncc(C(=O)N2CCOC(C(=O)N3CCCCC3)C2)c(C)n1 (stereo not shown)	-1.893	-22.28	11.08
O=C(c1[nH]nc(C2CC2)c1Cl)N1CCN(C2CC2)C(=O)C1	-5.057	-	-6.158

Repeated from the top, 4 entries:

Compound,A,B,C
COc1ccncc1NCc1cscn1,-1.613,-4.069,10.38
O=C(NCCSc1ccccc1)[C@H]1CNC[C@H](C(=O)N2CCOCC2)C1,2.093,-21.86,-10.62
CNc1cncc(C2CCCN2c2cc(C)ncn2)n1 (stereo not shown),-,0.1239,-0.9837
Cc1cccc(CN2CCC(c3csc4nccn34)CC2)n1,-3.776,-4.306,4.754